Source: PubChem BioAssay AID652272 (Drosophila RNAi Screening Center, 2013)
In all, the deposit lists about 21,000 reagents; below is a random part of those that have a named target and a result. Of all reagents, 503 (2.4%) were called active. 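Raw plate light values, not normalised; calls rest on replicate z-scores that were not deposited; hits include reporter decreases as well as increases.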 A plus sign joins genes that one reagent is predicted to hit. Not given: the amount of reagent, the time to read-out.

Test: 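Finding fly genes that regulate Hedgehog signal transduction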 (primary screen)
Cells: Drosophila clone 8 (Cl8) cells
Reagent: long dsRNA against Drosophila genes
Detection: 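Firefly light from a Hedgehog-responsive ptc promoter reporter and Renilla reference light, both read on a plate reader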
Scale: firefly Hh reporter signal: higher = more ptc reporter light; Renilla reference signal: higher = more Renilla control light
Call rule: 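Hit when the z-score averaged over two replicates is under -2 or over +3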
Calls: active = hit: reporter lowered or raised; inactive = not a hit

| gene knocked down | amplicon | firefly Hh reporter signal, replicate 1 | firefly Hh reporter signal, replicate 2 | firefly Hh reporter signal, replicate 3 | Renilla reference signal, replicate 1 | Renilla reference signal, replicate 2 | outcome |
| --- | --- | --- | --- | --- | --- | --- | --- |
| CG8051 | DRSC20077 | 98272 | 2.00e5 | – | 3920 | 8346 | inactive |
| alpha-Est8 | DRSC12620 | 55899 | 79636 | – | 1963 | 2789 | inactive |
| CG43084 | DRSC09998 | 1.10e5 | – | – | 4848 | 3344 | inactive |
| lncRNA:CR41443 | DRSC07733 | 1.61e5 | 3.06e5 | – | 4538 | 12985 | inactive |
| Lap1 | DRSC07454 | 66618 | 38076 | – | 1657 | 2836 | inactive |
| B9d1 | DRSC14993 | 1.06e5 | 1.56e5 | – | 3680 | 4523 | inactive |
| CG4611 | DRSC10434 | 59923 | 74061 | – | 5722 | 5825 | inactive |
| CG14339 | DRSC00369 | 1.01e5 | 1.01e5 | – | 2985 | 2544 | inactive |
| Lsp1alpha | DRSC20258 | 81691 | 2.02e5 | – | 3100 | 8752 | inactive |
| Glg1 | DRSC11815 | 79660 | 1.23e5 | – | 3483 | 4760 | inactive |
| Glg1 | DRSC11816 | 81008 | 82322 | – | 2584 | 1907 | inactive |
| Glg1 | DRSC11817 | 99530 | 1.24e5 | – | 2564 | 3552 | inactive |
| mRRF2 | DRSC16143 | 5.46e5 | 1.23e5 | – | 29801 | 3147 | inactive |
| CG43190 | DRSC05316 | 1.01e5 | 2.17e5 | – | 3033 | 9059 | inactive |
| CG15772 | DRSC18078 | 82869 | 2.25e5 | – | 3121 | 7984 | inactive |
| Gen | DRSC09679 | 1.48e5 | 94218 | – | 5827 | 3304 | inactive |
| CG13398 | DRSC02268 | 97336 | 49136 | – | 2370 | 4913 | inactive |
| EMC5 | DRSC02469 | 67056 | 41920 | – | 1650 | 4313 | inactive |
| Prosalpha3 | DRSC04644 | 51965 | 33835 | – | 1898 | 4681 | active |
| CG15484 | DRSC02494 | 2.13e5 | 6.46e5 | 83100 | 5392 | 35851 | inactive |
| Sld5 | DRSC14892 | 4.22e5 | 71690 | – | 26029 | 2368 | inactive |
| CG11089 + CG31381 | DRSC13690 | 1680 | 1.99e5 | – | 413 | 2850 | inactive |
| CG11089 + CG31381 | DRSC14290 | 98401 | 99756 | – | 3780 | 4178 | inactive |

An excerpt from the list above, as a working copy:
| gene knocked down | amplicon | firefly Hh reporter signal, replicate 1 | firefly Hh reporter signal, replicate 2 | firefly Hh reporter signal, replicate 3 | Renilla reference signal, replicate 1 | Renilla reference signal, replicate 2 | outcome |
| --- | --- | --- | --- | --- | --- | --- | --- |
| Glg1 | DRSC11817 | 99530 | 1.24e5 | – | 2564 | 3552 | inactive |
| mRRF2 | DRSC16143 | 5.46e5 | 1.23e5 | – | 29801 | 3147 | inactive |
| CG43190 | DRSC05316 | 1.01e5 | 2.17e5 | – | 3033 | 9059 | inactive |
